Reference: publication PMC8034384

These binders were tested against I-A^g7 MHC-II molecule (mouse (endogenous in NOD blood leukocytes)) (assay: affinity purification with mass spectrometry; I-A^g7 isolated from detergent lysate of NOD blood leukocytes (30 min after i.p. glucose challenge, two experiments; or without glucose, one experiment) on anti–I-A^g7 (AG2.42.7) sepharose at 4°C overnight after pre-clearing on mouse IgG sepharose; washes up to 400 mM NaCl, 20 mM Tris; bound peptides eluted with 10% acetic acid and identified by LC-MS/MS).

Binder | binding
SHLVEALYLVCGERG [Ins2B:9–23 peptide (insulin-2 B-chain)] | binds
LQTLALEVARQ [Ins1C:51–61 peptide (C-terminal fragment of the insulin-1 C-peptide)] | binds
LVEALYLVCGERG [Ins2B:11-23 peptide] | binds
SPLLKRQLTSFIEKGQE [Gc:389–405 peptide (vitamin D–binding protein)] | binds
TPEEIAQVATISANGDKDIG [Hspd1:164–183 peptide family (60-kD heat shock protein)] | binds
PQVEQLELGGSPGDLQTLAL [Ins1C:37–56 peptide family (N-terminal fragment of the insulin-1 C-peptide)] | binds
VEALYLVCGERG [Ins2B:12-23 peptide] | binds

Next, values leading:

binding | Binder
binds | LQTLALEVARE (deamidation of glutamine Q61 (converts Q to E)) [singly deamidated (Q61) Ins1C:51-61 peptide]
binds | PQVAQLELGGG [Ins2C:37–47 peptide family (insulin-2 C-peptide)]
binds | PGAGDLQTLAL [Ins2C:48–58 peptide (insulin-2 C-peptide)]
binds | ILSVHVATAA [ZnT8:313–322 peptide (zinc transporter 8)]

These are yes or no findings as the source states them, for the method shown. In cells and extracts the contact can be indirect. A yes stands for co-enrichment or nearness to the bait. Other partners may have been found.
